Laboratory results taken from US20170081698A1, “SURVIVAL ASSAYS FOR METAKARYOTIC STEM CELLS” (priority 2014, published 2017).

Tested on: HT-29 cells
Assay: Microscopic cytology of bell shaped metakaryotic nuclei in treated HT-29 cells (Hoechst, DAPI, Feulgen staining)
Assay type: cell-based, human
Conditions: HT-29 cultures

With COc1ccc2cc([C@H](C)C(=O)O)ccc2c1 [naproxen] the “condensation of chromatin in bell shaped metakaryotic nuclei” value was “do not induce the condensation of chromatin”.
